Paper PMC7949057, “The cytoprotective protein MANF promotes neuronal survival independently from its role as a GRP78 cofactor” (The Journal of Biological Chemistry, 2021)

T1: SH-tagged MANF (pre-SH-MANF), expressed in HEK293 cells (human) (UniProt P55145)
T1 sequence: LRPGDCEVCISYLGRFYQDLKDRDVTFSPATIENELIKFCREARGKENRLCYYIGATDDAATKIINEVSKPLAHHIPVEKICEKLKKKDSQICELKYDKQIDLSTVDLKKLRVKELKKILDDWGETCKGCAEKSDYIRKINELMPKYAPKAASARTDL

B1: peroxiredoxin-4, endogenous in HEK293 (protein, UniProt Q13162 38-271)
chain: WETEERPRTREEECHFYAGGQVYPGEASRVSVADHSLHLSKAKISKPAPYWEGTAVIDGEFKELKLTDYRGKYLVFFFYPLDFTFVCPTEIIAFGDRLEEFRSINTEVVACSVDSQFTHLAWINTPRRQGGLGPIRIPLLSDLTHQISKDYGVYLEDSGHTLRGLFIIDDKGILRQITLNDLPVGRSVDETLRLVQAFQYTDKHGEVCPAGWKPGSETIIPDPAGKLKYFDKLN
B2: protein disulfide isomerase family A member 6 (PDIA6), endogenous in HEK293 (protein, UniProt Q15084 20-440)
chain: LYSSSDDVIELTPSNFNREVIQSDSLWLVEFYAPWCGHCQRLTPEWKKAATALKDVVKVGAVDADKHHSLGGQYGVQGFPTIKIFGSNKNRPEDYQGGRTGEAIVDAALSALRQLVKDRLGGRSGGYSSGKQGRSDSSSKKDVIELTDDSFDKNVLDSEDVWMVEFYAPWCGHCKNLEPEWAAAASEVKEQTKGKVKLAAVDATVNQVLASRYGIRGFPTIKIFQKGESPVDYDGGRTRSDIVSRALDLFSDNAPPPELLEIINEDIAKRTCEEHQLCVVAVLPHILDTGAAGRNSYLEVLLKLADKYKKKMWGWLWTEAGAQSELETALGIGGFGYPAMAAINARKMKFALLKGSFSEQGINEFLRELSFGRGSTAPVGGGAFPTIVEREPWDGRDGELPVEDDIDLSDVELDDLGKDEL
B3: neutral alpha-glucosidase AB, endogenous in HEK293 (protein, UniProt Q14697 29-944)
chain: ITLAVDRSNFKTCEESSFCKRQRSIRPGLSPYRALLDSLQLGPDSLTVHLIHEVTKVLLVLELQGLQKNMTRFRIDELEPRRPRYRVPDVLVADPPIARLSVSGRDENSVELTMAEGPYKIILTARPFRLDLLEDRSLLLSVNARGLLEFEHQRAPRVSQGSKDPAEGDGAQPEETPRDGDKPEETQGKAEKDEPGAWEETFKTHSDSKPYGPMSVGLDFSLPGMEHVYGIPEHADNLRLKVTEGGEPYRLYNLDVFQYELYNPMALYGSVPVLLAHNPHRDLGIFWLNAAETWVDISSNTAGKTLFGKMMDYLQGSGETPQTDVRWMSETGIIDVFLLLGPSISDVFRQYASLTGTQALPPLFSLGYHQSRWNYRDEADVLEVDQGFDDHNLPCDVIWLDIEHADGKRYFTWDPSRFPQPRTMLERLASKRRKLVAIVDPHIKVDSGYRVHEELRNLGLYVKTRDGSDYEGWCWPGSAGYPDFTNPTMRAWWANMFSYDNYEGSAPNLFVWNDMNEPSVFNGPEVTMLKDAQHYGGWEHRDVHNIYGLYVHMATADGLRQRSGGMERPFVLARAFFAGSQRFGAVWTGDNTAEWDHLKISIPMCLSLGLVGLSFCGADVGGFFKNPEPELLVRWYQMGAYQPFFRAHAHLDTGRREPWLLPSQHNDIIRDALGQRYSLLPFWYTLLYQAHREGIPVMRPLWVQYPQDVTTFNIDDQYLLGDALLVHPVSDSGAHGVQVYLPGQGEVWYDIQSYQKHHGPQTLYLPVTLSSIPVFQRGGTIVPRWMRVRRSSECMKDDPITLFVALSPQGTAQGELFLDDGHTFNYQTRQEFLLRRFSFSGNTLVSSSADPEGHFETPIWIERVVIIGAGKPAAVVLQTKGSPESRLSFQHDPETSVLVLRKPGINVASDWSIHLR
B4: glucose-regulated protein 170 kDa (GRP170), endogenous in HEK293 (protein, UniProt Q9Y4L1 33-999)
chain: LAVMSVDLGSESMKVAIVKPGVPMEIVLNKESRRKTPVIVTLKENERFFGDSAASMAIKNPKATLRYFQHLLGKQADNPHVALYQARFPEHELTFDPQRQTVHFQISSQLQFSPEEVLGMVLNYSRSLAEDFAEQPIKDAVITVPVFFNQAERRAVLQAARMAGLKVLQLINDNTATALSYGVFRRKDINTTAQNIMFYDMGSGSTVCTIVTYQMVKTKEAGMQPQLQIRGVGFDRTLGGLEMELRLRERLAGLFNEQRKGQRAKDVRENPRAMAKLLREANRLKTVLSANADHMAQIEGLMDDVDFKAKVTRVEFEELCADLFERVPGPVQQALQSAEMSLDEIEQVILVGGATRVPRVQEVLLKAVGKEELGKNINADEAAAMGAVYQAAALSKAFKVKPFVVRDAVVYPILVEFTREVEEEPGIHSLKHNKRVLFSRMGPYPQRKVITFNRYSHDFNFHINYGDLGFLGPEDLRVFGSQNLTTVKLKGVGDSFKKYPDYESKGIKAHFNLDESGVLSLDRVESVFETLVEDSAEEESTLTKLGNTISSLFGGGTTPDAKENGTDTVQEEEESPAEGSKDEPGEQVELKEEAEAPVEDGSQPPPPEPKGDATPEGEKATEKENGDKSEAQKPSEKAEAGPEGVAPAPEGEKKQKPARKRRMVEEIGVELVVLDLPDLPEDKLAQSVQKLQDLTLRDLEKQEREKAANSLEAFIFETQDKLYQPEYQEVSTEEQREEISGKLSAASTWLEDEGVGATTVMLKEKLAELRKLCQGLFFRVEERKKWPERLSALDNLLNHSSMFLKGARLIPEMDQIFTEVEMTTLEKVINETWAWKNATLAEQAKLPATEKPVLLSKDIEAKMMALDREVQYLLNKAKFTKPRPRPKDKNGTRAEPPLNASASDQGEKVIPPAGQTEDAEPISEPEKVETGSEPGDTEPLELGGPGAEPEQKEQSTGQKRPLKNDEL
B5: protein disulfide isomerase family A member 4, endogenous in HEK293 (protein, UniProt P13667 21-645)
chain: VAGAEGPDEDSSNRENAIEDEEEEEEEDDDEEEDDLEVKEENGVLVLNDANFDNFVADKDTVLLEFYAPWCGHCKQFAPEYEKIANILKDKDPPIPVAKIDATSASVLASRFDVSGYPTIKILKKGQAVDYEGSRTQEEIVAKVREVSQPDWTPPPEVTLVLTKENFDEVVNDADIILVEFYAPWCGHCKKLAPEYEKAAKELSKRSPPIPLAKVDATAETDLAKRFDVSGYPTLKIFRKGRPYDYNGPREKYGIVDYMIEQSGPPSKEILTLKQVQEFLKDGDDVIIIGVFKGESDPAYQQYQDAANNLREDYKFHHTFSTEIAKFLKVSQGQLVVMQPEKFQSKYEPRSHMMDVQGSTQDSAIKDFVLKYALPLVGHRKVSNDAKRYTRRPLVVVYYSVDFSFDYRAATQFWRSKVLEVAKDFPEYTFAIADEEDYAGEVKDLGLSESGEDVNAAILDESGKKFAMEPEEFDSDTLREFVTAFKKGKLKPVIKSQPVPKNNKGPVKVVVGKTFDSIVMDPKKDVLIEFYAPWCGHCKQLEPVYNSLAKKYKGQKGLVIAKMDATANDVPSDRYKVEGFPTIYFAPSGDKKNPVKFEGGDRDLEHLSKFIEEHATKLSRTKEEL

target: T1, SH-tagged MANF (pre-SH-MANF), expressed in HEK293 cells (human); experiment: affinity purification with mass spectrometry; SH-tagged MANF as bait from doxycycline-induced HEK293 pre-SH-MANF cells; HENN lysis buffer (50 mM Hepes-NaOH pH 8.0, 5 mM EDTA, 150 mM NaCl, 50 mM NaF, 0.5% NP40); Strep-Tactin beads, biotin elution; GFP-SH cells as negative control; FDR <= 0.001, s0 = 2

binding, binds:
B1
B2
B3
B4
B5

These are yes or no findings as the source states them, for the method shown. Binding seen in cells or lysates may run through a third protein. Here binding means that the protein was enriched with, or labelled near, the bait; the list need not be complete. Sequences can lack the tags named with a protein.
